Experimental data: PubChem BioAssay AID1224829 (NIAID, 2016)
This is one part, drawn at random, of about 3,800 deposited reagents. 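Calls cover raised and lowered translocation; gene median uses one vendor's three siRNAs; qiagen siRNAs acted more weakly than ambion siRNAs.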 Entries without a mark were called inactive. Reagents against one gene are numbered here. Not all columns of the deposit are shown.

- Aim: 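Follow-up of TLR4-NF-kappaB regulators using six separate siRNAs for each gene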 (follow-up of hits)
- Cell system: mouse RAW264.7 G9 macrophage reporter cells
- Knock-down reagent: single siRNA against mouse genes, 100 nM
- Time to read-out: 2 days of siRNA knock-down, then 40 min of LPS before fixing
- Challenge: LPS (Salmonella minnesota R595) at 10 ng/ml
- Read-out: 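High-content images after 40 min LPS exposure; GFP-p65 nucleus to surrounding ring signal ratio, normalised to plate median and non-targeting control wells, expressed as z-score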
- Direction: p65 translocation z-score: higher = more nuclear NF-kappaB p65 after LPS
- Hit rule: 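An siRNA is called active when the mean z-score of its two replicates is above 2 or below -2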
- Calls: active = changed p65 translocation (either direction); inactive = no clear change

| Target gene | reagent no. | siRNA vendor or control pool | p65 translocation z-score, replicate mean |
| --- | --- | --- | --- |
| Serpinc1 | 1 | ambion single siRNA | 2.18 (active) |
| Serpinc1 | 2 | ambion single siRNA | 1.47 |
| Serpinc1 | 3 | ambion single siRNA | -1.16 |
| Serpinc1 | 4 | qiagen single siRNA | 3.31 (active) |
| Serpinc1 | 5 | qiagen single siRNA | 0.552 |
| Serpinc1 | 6 | qiagen single siRNA | 1.15 |
| Etf1 (eukaryotic translation termination factor 1) | 1 | ambion single siRNA | -0.937 |
| Etf1 (eukaryotic translation termination factor 1) | 2 | ambion single siRNA | -3.46 (active) |
| Etf1 (eukaryotic translation termination factor 1) | 3 | ambion single siRNA | -3.62 (active) |
| Etf1 (eukaryotic translation termination factor 1) | 4 | qiagen single siRNA | -0.502 |
| Etf1 (eukaryotic translation termination factor 1) | 5 | qiagen single siRNA | -1.94 |
| Etf1 (eukaryotic translation termination factor 1) | 6 | qiagen single siRNA | 0.388 |
| Sox11 (SRY (sex determining region Y)-box 11) | 1 | ambion single siRNA | -0.304 |
| Sox11 (SRY (sex determining region Y)-box 11) | 2 | ambion single siRNA | -1.87 |
| Sox11 (SRY (sex determining region Y)-box 11) | 3 | ambion single siRNA | -3.26 (active) |
| Sox11 (SRY (sex determining region Y)-box 11) | 4 | qiagen single siRNA | -2.22 (active) |
| Sox11 (SRY (sex determining region Y)-box 11) | 5 | qiagen single siRNA | -2.08 (active) |
| Sox11 (SRY (sex determining region Y)-box 11) | 6 | qiagen single siRNA | 8.63 (active) |
| Fstl4 (follistatin-like 4) | 1 | ambion single siRNA | -0.577 |
| Fstl4 (follistatin-like 4) | 2 | ambion single siRNA | -1.84 |
| Fstl4 (follistatin-like 4) | 3 | ambion single siRNA | -3.87 (active) |
| Fstl4 (follistatin-like 4) | 4 | qiagen single siRNA | -0.439 |
| Fstl4 (follistatin-like 4) | 5 | qiagen single siRNA | 4.72 (active) |
| Fstl4 (follistatin-like 4) | 6 | qiagen single siRNA | 1.67 |
| Tacc1 (transforming, acidic coiled-coil containing protein 1) | 1 | ambion single siRNA | -2.05 (active) |
| Tacc1 (transforming, acidic coiled-coil containing protein 1) | 2 | ambion single siRNA | 2.4 (active) |
| Tacc1 (transforming, acidic coiled-coil containing protein 1) | 3 | ambion single siRNA | -1.24 |
| Tacc1 (transforming, acidic coiled-coil containing protein 1) | 4 | qiagen single siRNA | 1.62 |
| Tacc1 (transforming, acidic coiled-coil containing protein 1) | 5 | qiagen single siRNA | -0.613 |
| Tacc1 (transforming, acidic coiled-coil containing protein 1) | 6 | qiagen single siRNA | -0.918 |
| Or2y1g (olfactory receptor family 2 subfamily Y member 1G) | 1 | ambion single siRNA | -0.318 |
| Or2y1g (olfactory receptor family 2 subfamily Y member 1G) | 2 | ambion single siRNA | -1.28 |
| Or2y1g (olfactory receptor family 2 subfamily Y member 1G) | 3 | ambion single siRNA | -0.686 |
| Or2y1g (olfactory receptor family 2 subfamily Y member 1G) | 4 | qiagen single siRNA | -0.0567 |
| Or2y1g (olfactory receptor family 2 subfamily Y member 1G) | 5 | qiagen single siRNA | 0.721 |
| Or2y1g (olfactory receptor family 2 subfamily Y member 1G) | 6 | qiagen single siRNA | -9.88 (active) |

No new results follow: 6 of the entries above.
| Target gene | reagent no. | siRNA vendor or control pool | p65 translocation z-score, replicate mean |
| --- | --- | --- | --- |
| Fstl4 (follistatin-like 4) | 6 | qiagen single siRNA | 1.67 |
| Tacc1 (transforming, acidic coiled-coil containing protein 1) | 1 | ambion single siRNA | -2.05 (active) |
| Tacc1 (transforming, acidic coiled-coil containing protein 1) | 2 | ambion single siRNA | 2.4 (active) |
| Tacc1 (transforming, acidic coiled-coil containing protein 1) | 3 | ambion single siRNA | -1.24 |
| Tacc1 (transforming, acidic coiled-coil containing protein 1) | 4 | qiagen single siRNA | 1.62 |
| Tacc1 (transforming, acidic coiled-coil containing protein 1) | 5 | qiagen single siRNA | -0.613 |

Further results:
| Target gene | reagent no. | siRNA vendor or control pool | p65 translocation z-score, replicate mean |
| --- | --- | --- | --- |
| Dixdc1 (DIX domain containing 1) | 1 | ambion single siRNA | -4.73 (active) |
| Dixdc1 (DIX domain containing 1) | 2 | ambion single siRNA | -1.8 |
| Dixdc1 (DIX domain containing 1) | 3 | ambion single siRNA | -2.26 (active) |
| Dixdc1 (DIX domain containing 1) | 4 | qiagen single siRNA | 1.42 |
| Dixdc1 (DIX domain containing 1) | 5 | qiagen single siRNA | 1.75 |
| Dixdc1 (DIX domain containing 1) | 6 | qiagen single siRNA | 2.19 (active) |
| Or5w15 (olfactory receptor family 5 subfamily W member 15) | 1 | ambion single siRNA | -4.02 (active) |
| Or5w15 (olfactory receptor family 5 subfamily W member 15) | 2 | ambion single siRNA | 0.947 |
| Or5w15 (olfactory receptor family 5 subfamily W member 15) | 3 | ambion single siRNA | -2.78 (active) |
| Or5w15 (olfactory receptor family 5 subfamily W member 15) | 4 | qiagen single siRNA | 0.212 |
| Or5w15 (olfactory receptor family 5 subfamily W member 15) | 5 | qiagen single siRNA | 0.372 |
| Or5w15 (olfactory receptor family 5 subfamily W member 15) | 6 | qiagen single siRNA | 0.709 |
| Gm10283 (predicted gene 10283) | 1 | ambion single siRNA | 0.519 |
| Gm10283 (predicted gene 10283) | 2 | ambion single siRNA | -0.586 |
| Gm10283 (predicted gene 10283) | 3 | ambion single siRNA | -1.77 |
| Gm10283 (predicted gene 10283) | 4 | qiagen single siRNA | -1.96 |
| Gm10283 (predicted gene 10283) | 5 | qiagen single siRNA | -1.51 |
| Gm10283 (predicted gene 10283) | 6 | qiagen single siRNA | 2.34 (active) |
